Data taken from the supplement of paper PMC10382679.
Single values of this set are uncertain.

B1: Rpb7; numbered along this chain (parent)
chain: MFFIKDLSLNITLHPSFFGPRMKQYLKTKLLEEVEGSCTGKFGYILCVLDYDNIDIQRGRILPTDGSAEFNVKYRAVVFKPFKGEVVDGTVVSCSQHGFEVQVGPMKVFVTKHLMPQDLTFNAGSNPPSYQSSEDVITIKSRIRVKIEGCISQVSSIHAIGSIKEDYLGAI

Assays:
[1] = variants of: B1; test: log2 fold change of mutant abundance, UV-irradiated vs unirradiated; higher = more UV resistant (enriched after UV); conditions: with Saccharomyces cerevisiae rad7Δ rad26Δ; UV dose (J/m2): 10; genetic background: rad7Δ rad26Δ rpb7Δ + plasmid RPB7 library; outgrowth: 10 cell divisions
Protocol: (§1)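 Error-prone PCR random mutant library of yeast RPB7 (codons 2-171) on a LEU2 plasmid, shuffled into rad7Δ rad26Δ S. cerevisiae (BJ5465 background) with genomic RPB7 deleted. Cells were irradiated with 10 J/m2 UV (254 nm) or left unirradiated and grown for 10 divisions. Plasmid RPB7 amplicons were Illumina-sequenced and per-codon amino-acid counts were compared UV vs no UV with NOISeq (3 repeats, ARSyNseq batch correction). Positive log2FC means enrichment after UV, i.e. UV resistance / derepressed TCR.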

[2] = variants of: B1; test: NOISeq theta enrichment statistic, UV-irradiated vs unirradiated (dimensionless); higher = more UV resistant (enriched after UV); conditions: with Saccharomyces cerevisiae rad7Δ rad26Δ; UV dose (J/m2): 10; genetic background: rad7Δ rad26Δ rpb7Δ + plasmid RPB7 library; outgrowth: 10 cell divisions
Protocol: as §1

| Variant | log2 fold change of mutant abundance [1] | NOISeq theta enrichment statistic [2] |
| --- | --- | --- |
| M22R | -0.353 | -0.401 |
| M22E | -1.13 | -0.607 |
| M22N | -0.347 | -0.181 |
| M22W | -0.424 | -0.337 |
| M22K | -0.24 | -0.429 |
| M22F | 0.382 | 0.268 |
| M22V | -0.0745 | -0.227 |
| M22T | -0.211 | -0.552 |
| G19R | -0.185 | -0.191 |
| G19S | 0.0394 | 0.111 |
| G19F | -0.398 | -0.258 |
| G19C | 0.153 | 0.487 |
| G19A | -0.158 | -0.189 |
| G19D | 0.0542 | 0.111 |
| G19V | 0.0075 | 0.0156 |
| P20R | 0.131 | 0.166 |
| P20A | -0.00343 | -0.00334 |
| P20H | 0.179 | 0.554 |
| P20L | 0.133 | 0.315 |
| P20Q | -0.5 | -0.229 |

| Variant | log2 fold change of mutant abundance [1] | NOISeq theta enrichment statistic [2] |
| --- | --- | --- |
| P20T | 0.0935 | 0.181 |
| P20S | 0.098 | 0.267 |
| P20Y | 1.86 | 0.649 |
| Q24Y | -0.00922 | -0.0073 |
| Q24K | 0.00703 | 0.0115 |
| Q24A | 0.0329 | 0.0155 |
| Q24H | 0.176 | 0.775 |
| Q24L | 0.0357 | 0.132 |
| Q24N | 0.11 | 0.106 |
| Q24E | 0.17 | 0.22 |
| Q24R | 0.0702 | 0.196 |
| Q24I | -1.19 | -0.591 |
| Q24P | -0.168 | -0.194 |
| H14D | -0.475 | -0.418 |
| H14N | -0.235 | -0.407 |
| H14I | -0.622 | -0.547 |
| H14P | -0.00685 | -0.00982 |
| H14R | -0.092 | -0.327 |
| H14K | 0.173 | 0.106 |
| H14Y | -0.154 | -0.276 |

| Variant | log2 fold change of mutant abundance [1] | NOISeq theta enrichment statistic [2] |
| --- | --- | --- |
| H14Q | -0.165 | -0.594 |
| H14S | -0.431 | -0.266 |
| H14L | -0.132 | -0.269 |
| T12N | 0.00967 | 0.0174 |
| T12A | -0.0929 | -0.202 |
| T12Y | -0.0824 | -0.0367 |
| T12K | 0.185 | 0.13 |
| T12S | -0.0765 | -0.339 |
| T12R | -0.164 | -0.109 |
| T12P | -0.124 | -0.171 |
| T12I | 0.135 | 0.425 |
| I11M | -0.283 | -0.334 |
| I11R | 0.228 | 0.159 |
| I11K | -0.195 | -0.0764 |
| I11T | -0.0522 | -0.14 |
| I11S | 0.237 | 0.248 |
| I11F | 0.213 | 0.472 |
| I11Y | -0.8 | -0.351 |

Two records drawn at random from those above, as already listed:

| Variant | log2 fold change of mutant abundance [1] | NOISeq theta enrichment statistic [2] |
| --- | --- | --- |
| T12I | 0.135 | 0.425 |
| I11Y | -0.8 | -0.351 |
